PubChem BioAssay AID1159584, Peter MacCallum Cancer Centre – 2016
This is an unselected part of about 18,000 reagents. Further read-outs or replicates are left out here. No sequences are given here. Not stated in the record: the amount of reagent, the time to read-out.

Assay: 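Genes whose loss is lethal only together with E-cadherin loss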 (primary screen)
Cells: human MCF10A breast epithelial cells, parental and CDH1-null
Knock-down reagent: siRNA against human genes
Read-out: 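Cell viability by CellTiter-Glo ATP luminescence, each line scaled to the mean of mock wells across plates, then CDH1-null over parental ratio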
Scale: CDH1-null / parental viability ratio: higher = CDH1-null cells survive relatively better than parental

gene knocked down	PubChem SID	CDH1-null / parental viability ratio
CDH24	SID134322811	1.26
SECISBP2L	SID135624289	1.16
SYCP3	SID152149895	0.98
PIK3R3	SID56479284	1.34
PROSER3	SID135623006	1.08
PCSK7	SID134311413	1.18
TRAPPC1	SID135622610	0.7
TMPRSS3	SID135621129	0.8
NR5A2	SID134309881	0.86
MAGT1	SID135623473	0.88
MTRES1	SID134324744	1.03
POPDC3	SID134321255	0.83
KATNAL2	SID134329981	1.17
CERS4	SID134318523	0.94
RAB18	SID134315266	0.91
ZNF652	SID152153856	0.91
EXO5	SID134318387	0.91
ZNF780A	SID135624398	1.1
SLC17A7	SID134312465	1.06
A1BG	SID152150373	1.01
ERV3-1	SID152156083	1.4
PTGER3	SID134311144	0.84
PLXNB3	SID134312721	1.19
LPIN1	SID135623333	1.09
KRT32	SID152147823	1.4
SAMD4A	SID152155069	0.96
CHP1	SID152148191	1.25
SMARCA4	SID134314982	1.12

An excerpt taken from the entries so far, as a working copy:
gene knocked down	PubChem SID	CDH1-null / parental viability ratio
TMPRSS3	SID135621129	0.8
NR5A2	SID134309881	0.86
MAGT1	SID135623473	0.88

Further entries:
gene knocked down	PubChem SID	CDH1-null / parental viability ratio
SNRPD3	SID134322897	0.88
PTBP1	SID135620693	1
HNRNPD	SID152149384	0.96
BCL2L13	SID134324013	0.98
SLC26A2	SID135621388	1.01
IGFL3	SID134329549	0.84
RASSF4	SID134321516	1.53
VNN1	SID134316219	0.68
PCDHA3	SID134317490	1.04
TYW5	SID152150082	0.95
ATP2B2	SID134311535	1.18
ARL13A	SID152149210	1.17
AP3S2	SID135623288	0.9
LRATD2	SID134315183	0.74
HSPBP1	SID152152356	0.98
NUP98	SID152147776	0.98
HM13	SID135621096	1.49
LEAP2	SID152150535	1.43
NNAT	SID134322927	0.74
NAB1	SID152148854	1.35
PIP4P2	SID134318015	1.07
SDHAF4	SID134319998	1.07
ATP5PF	SID152147423	0.98
LGALS3BP	SID134312949	1.28
RILPL1	SID134322028	0.68
GSTA5	SID134313900	0.93
HIGD2A	SID152155040	0.92
INO80	SID135620787	1.16
NLE1	SID135623037	1.05
JMJD6	SID152147623	1.4
ANAPC15	SID152149980	1.19
COX7B	SID134315954	1.33
PSMB3	SID134321422	1.55
SAFB2	SID134324084	1.25
TTLL13	SID135625315	0.94
TIGIT	SID134322341	0.99
SIVA1	SID152147047	1.33
STPG4	SID134322038	0.89
GLS2	SID134316766	1.27
PHACTR1	SID152153713	0.88
